Reference: the supplement of paper PMC8728848
The list shows a part of the results.

Columns and labels:
Assay in all cases: glycan array binding signal (z-score within array); higher = stronger binding
Conditions in all cases: glycan notation: IUPAC condensed, linker removed
[1] = biological target: GlcNAc(a1-4)Gal(b1-3)GlcNAc
Procedure, shortened: (§1)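 Negative Z-scores can be read as non-binding. The Z-score is calculated within each array and then averaged across arrays of one protein sequence at different concentrations or buffers and across linkers. Arrays, 3228 in all, were curated from the Consortium for Functional Glycomics database and kept only where the protein sequence was available.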

[2] = biological target: GlcNAc(a1-4)Gal(b1-4)GalNAc
Procedure, shortened: as §1

[3] = biological target: GlcNAc(a1-4)Gal(b1-4)GlcNAc
Procedure, shortened: as §1

[4] = biological target: GlcNAc(a1-4)Gal(b1-4)GlcNAc(b1-3)Gal(b1-4)Glc
Procedure, shortened: as §1

[5] = biological target: GlcNAc(a1-4)Gal(b1-4)GlcNAc(b1-3)Gal(b1-4)GlcNAc
Procedure, shortened: as §1

[6] = biological target: GlcNAc(a1-4)Gal(b1-4)GlcNAc(b1-3)Gal(b1-4)GlcNAc(b1-3)Gal(b1-4)GlcNAc
Procedure, shortened: as §1

[7] = biological target: GlcNAc(a1-4)Gal(b1-4)GlcNAc(b1-3)Gal(b1-4)[Fuc(a1-3)]GlcNAc(b1-3)Gal(b1-4)[Fuc(a1-3)]GlcNAc
Procedure, shortened: as §1

[8] = biological target: GlcNAc(a1-6)Gal(b1-4)GlcNAc
Procedure, shortened: as §1

[9] = biological target: GlcNAc(b1-2)Gal(b1-3)GalNAc
Procedure, shortened: as §1

[10] = biological target: GlcNAc(b1-2)Man(a1-3)[GlcNAc(b1-2)Man(a1-6)]Man(b1-4)GlcNAc(b1-4)GlcNAc
Procedure, shortened: as §1

[11] = biological target: GlcNAc(b1-2)Man(a1-3)[GlcNAc(b1-2)Man(a1-6)]Man(b1-4)GlcNAc(b1-4)[Fuc(a1-6)]GlcNAc
Procedure, shortened: as §1

[12] = biological target: GlcNAc(b1-2)Man(a1-3)[GlcNAc(b1-4)][GlcNAc(b1-2)Man(a1-6)]Man(b1-4)GlcNAc(b1-4)GlcNAc
Procedure, shortened: as §1

[13] = biological target: GlcNAc(b1-2)Man(a1-3)[GlcNAc(b1-4)][GlcNAc(b1-2)Man(a1-6)]Man(b1-4)GlcNAc(b1-4)[Fuc(a1-6)]GlcNAc
Procedure, shortened: as §1

[14] = biological target: GlcNAc(b1-2)[GlcNAc(b1-4)]Man(a1-3)[GlcNAc(b1-2)Man(a1-6)]Man(b1-4)GlcNAc(b1-4)GlcNAc
Procedure, shortened: as §1

[15] = biological target: GlcNAc(b1-2)[GlcNAc(b1-4)]Man(a1-3)[GlcNAc(b1-4)][GlcNAc(b1-2)Man(a1-6)]Man(b1-4)GlcNAc(b1-4)GlcNAc
Procedure, shortened: as §1

[16] = biological target: GlcNAc(b1-2)[GlcNAc(b1-4)]Man(a1-3)[GlcNAc(b1-4)][GlcNAc(b1-2)[GlcNAc(b1-6)]Man(a1-6)]Man(b1-4)GlcNAc(b1-4)GlcNAc
Procedure, shortened: as §1

[17] = biological target: GlcNAc(b1-2)[GlcNAc(b1-4)]Man(a1-3)[GlcNAc(b1-4)][GlcNAc(b1-2)[GlcNAc(b1-6)]Man(a1-6)]Man(b1-4)GlcNAc(b1-4)[Fuc(a1-6)]GlcNAc
Procedure, shortened: as §1

[18] = biological target: GlcNAc(b1-2)[GlcNAc(b1-6)]Man(a1-6)[GlcNAc(b1-2)Man(a1-3)]Man(b1-4)GlcNAc(b1-4)GlcNAc
Procedure, shortened: as §1

[19] = biological target: GlcNAc(b1-2)[GlcNAc(b1-6)]Man(a1-6)[GlcNAc(b1-2)Man(a1-3)]Man(b1-4)GlcNAc(b1-4)[Fuc(a1-6)]GlcNAc
Procedure, shortened: as §1

[20] = biological target: GlcNAc(b1-2)[GlcNAc(b1-6)]Man(a1-6)[GlcNAc(b1-4)][GlcNAc(b1-2)Man(a1-3)]Man(b1-4)GlcNAc(b1-4)GlcNAc
Procedure, shortened: as §1

GlcNAc(b1-3)Fuc = biological target: GlcNAc(b1-3)Fuc
Procedure, shortened: as §1

GlcNAc(b1-3)Gal = biological target: GlcNAc(b1-3)Gal
Procedure, shortened: as §1

[21] = biological target: GlcNAc(b1-3)Gal(b1-3)GalNAc
Procedure, shortened: as §1

GlcNAc(b1-3)Gal(b1-4)Glc = biological target: GlcNAc(b1-3)Gal(b1-4)Glc
Procedure, shortened: as §1

[22] = biological target: GlcNAc(b1-3)Gal(b1-4)GlcNAc
Procedure, shortened: as §1

[23] = biological target: GlcNAc(b1-3)Gal(b1-4)GlcNAc(b1-2)Man(a1-3)[GlcNAc(b1-3)Gal(b1-4)GlcNAc(b1-2)Man(a1-6)]Man(b1-4)GlcNAc(b1-4)GlcNAc
Procedure, shortened: as §1

[24] = biological target: GlcNAc(b1-3)Gal(b1-4)GlcNAc(b1-2)Man(a1-3)[GlcNAc(b1-3)Gal(b1-4)GlcNAc(b1-2)Man(a1-6)]Man(b1-4)GlcNAc(b1-4)[Fuc(a1-6)]GlcNAc
Procedure, shortened: as §1

[25] = biological target: GlcNAc(b1-3)Gal(b1-4)GlcNAc(b1-2)[GlcNAc(b1-3)Gal(b1-4)GlcNAc(b1-6)]Man(a1-6)[GlcNAc(b1-3)Gal(b1-4)GlcNAc(b1-2)Man(a1-3)]Man(b1-4)GlcNAc(b1-4)GlcNAc
Procedure, shortened: as §1

[26] = biological target: GlcNAc(b1-3)Gal(b1-4)GlcNAc(b1-3)Gal(b1-4)GlcNAc
Procedure, shortened: as §1

[27] = biological target: GlcNAc(b1-3)Gal(b1-4)GlcNAc(b1-3)Gal(b1-4)GlcNAc(b1-2)Man(a1-3)[GlcNAc(b1-3)Gal(b1-4)GlcNAc(b1-3)Gal(b1-4)GlcNAc(b1-2)Man(a1-6)]Man(b1-4)GlcNAc(b1-4)GlcNAc
Procedure, shortened: as §1

[28] = biological target: GlcNAc(b1-3)Gal(b1-4)GlcNAc(b1-3)Gal(b1-4)GlcNAc(b1-2)Man(a1-3)[GlcNAc(b1-3)Gal(b1-4)GlcNAc(b1-3)Gal(b1-4)GlcNAc(b1-2)Man(a1-6)]Man(b1-4)GlcNAc(b1-4)[Fuc(a1-6)]GlcNAc
Procedure, shortened: as §1

[29] = biological target: GlcNAc(b1-3)Gal(b1-4)GlcNAc(b1-3)Gal(b1-4)GlcNAc(b1-2)[GlcNAc(b1-3)Gal(b1-4)GlcNAc(b1-3)Gal(b1-4)GlcNAc(b1-6)]Man(a1-6)[GlcNAc(b1-3)Gal(b1-4)GlcNAc(b1-3)Gal(b1-4)GlcNAc(b1-2)Man(a1-3)]Man(b1-4)GlcNAc(b1-4)[Fuc(a1-6)]GlcNAc
Procedure, shortened: as §1

[30] = biological target: GlcNAc(b1-3)Gal(b1-4)GlcNAc(b1-3)Gal(b1-4)GlcNAc(b1-3)Gal(b1-4)GlcNAc(b1-2)Man(a1-3)[GlcNAc(b1-3)Gal(b1-4)GlcNAc(b1-3)Gal(b1-4)GlcNAc(b1-3)Gal(b1-4)GlcNAc(b1-2)Man(a1-6)]Man(b1-4)GlcNAc(b1-4)GlcNAc
Procedure, shortened: as §1

[31] = biological target: GlcNAc(b1-3)Gal(b1-4)GlcNAc(b1-3)Gal(b1-4)GlcNAc(b1-3)Gal(b1-4)GlcNAc(b1-2)Man(a1-3)[GlcNAc(b1-3)Gal(b1-4)GlcNAc(b1-3)Gal(b1-4)GlcNAc(b1-3)Gal(b1-4)GlcNAc(b1-2)Man(a1-6)]Man(b1-4)GlcNAc(b1-4)[Fuc(a1-6)]GlcNAc
Procedure, shortened: as §1

[32] = biological target: GlcNAc(b1-3)Gal(b1-4)GlcNAc(b1-3)Gal(b1-4)GlcNAc(b1-3)Gal(b1-4)GlcNAc(b1-2)[GlcNAc(b1-3)Gal(b1-4)GlcNAc(b1-3)Gal(b1-4)GlcNAc(b1-3)Gal(b1-4)GlcNAc(b1-6)]Man(a1-6)[GlcNAc(b1-3)Gal(b1-4)GlcNAc(b1-3)Gal(b1-4)GlcNAc(b1-3)Gal(b1-4)GlcNAc(b1-2)Man(a1-3)]Man(b1-4)GlcNAc(b1-4)[Fuc(a1-6)]GlcNAc
Procedure, shortened: as §1

[33] = biological target: GlcNAc(b1-3)Gal(b1-4)GlcNAc(b1-3)Gal(b1-4)GlcNAc(b1-3)Gal(b1-4)GlcNAc(b1-3)Gal(b1-4)GlcNAc(b1-2)Man(a1-3)[GlcNAc(b1-3)Gal(b1-4)GlcNAc(b1-3)Gal(b1-4)GlcNAc(b1-3)Gal(b1-4)GlcNAc(b1-3)Gal(b1-4)GlcNAc(b1-2)Man(a1-6)]Man(b1-4)GlcNAc(b1-4)GlcNAc
Procedure, shortened: as §1

[34] = biological target: GlcNAc(b1-3)Gal(b1-4)GlcNAc(b1-3)Gal(b1-4)GlcNAc(b1-3)Gal(b1-4)GlcNAc(b1-3)Gal(b1-4)GlcNAc(b1-2)Man(a1-3)[GlcNAc(b1-3)Gal(b1-4)GlcNAc(b1-3)Gal(b1-4)GlcNAc(b1-3)Gal(b1-4)GlcNAc(b1-3)Gal(b1-4)GlcNAc(b1-2)Man(a1-6)]Man(b1-4)GlcNAc(b1-4)[Fuc(a1-6)]GlcNAc
Procedure, shortened: as §1

[35] = biological target: GlcNAc(b1-3)Gal(b1-4)GlcNAc(b1-3)Gal(b1-4)GlcNAc(b1-3)Gal(b1-4)GlcNAc(b1-3)Gal(b1-4)GlcNAc(b1-2)[GlcNAc(b1-3)Gal(b1-4)GlcNAc(b1-3)Gal(b1-4)GlcNAc(b1-3)Gal(b1-4)GlcNAc(b1-3)Gal(b1-4)GlcNAc(b1-6)]Man(a1-6)[GlcNAc(b1-3)Gal(b1-4)GlcNAc(b1-3)Gal(b1-4)GlcNAc(b1-3)Gal(b1-4)GlcNAc(b1-3)Gal(b1-4)GlcNAc(b1-2)Man(a1-3)]Man(b1-4)GlcNAc(b1-4)[Fuc(a1-6)]GlcNAc
Procedure, shortened: as §1

B1: PX15642A-pgi-501-20-501 (Parabacteroides gingivalis) (protein)
chain: CELDRDPEGKDFQQPYTSFVQTKQNRDGLYALLRNTENPRMHFYQELQSDMYCTTITDGNSLAPFVNWDLGILNDHGRADEDEVSGIAGYYFVYNRLNQQANAFVNNTEAALQNQVYKNSTEIANAKSFLAEGKVLQALAIWRLMDRFSFHESVTEVNSGAKDLGVILLKEYNPGYIGPRATKAQCYDYILSRLSEAIEVLPENRESVLYVSRDYAYALRARIYLALGEYGKAAADAKMVVDKYPLIGAADASEFENIYRSDANNPEIIFRGFASATLGSFTATTLNGAAPAGKDIKYNPSAVPFQWVVDLYENEDFRKSVYIAKVVKKDKGYLVNKFLEDKAYRDVQDKPNLKVGARYFSVAEVYLILVESALQTGDTPTAEKYLKALSKARGAEVSVVNMEALQAERTRELIGEGSRLRDMVRWSIPNNHDAFETQPGLEGFANTTPLKAQAPVGFYAYTWEFPQRDRQTNPQLIKNWPI
In the case of B1, the “glycan array binding signal (z-score)” value [1] is reported as -0.595, the “glycan array binding signal (z-score)” value [2] is reported as -0.137 and the “glycan array binding signal (z-score)” value [3] is reported as -0.517. For the same binder, the “glycan array binding signal (z-score)” value [4] was 0.142, the “glycan array binding signal (z-score)” value [5] was -0.768 and the “glycan array binding signal (z-score)” value [6] was -0.663. For the same binder, the “glycan array binding signal (z-score)” value [7] was 0.402, the “glycan array binding signal (z-score)” value [8] was -0.112 and the “glycan array binding signal (z-score)” value [9] was -0.131. For the same binder, the “glycan array binding signal (z-score)” value [10] was -0.55, the “glycan array binding signal (z-score)” value [11] was 0.116 and the “glycan array binding signal (z-score)” value [12] was -0.514. The “glycan array binding signal (z-score)” value [13] was -0.108, the “glycan array binding signal (z-score)” value [14] was 0.13 and the “glycan array binding signal (z-score)” value [15] was -0.243. The “glycan array binding signal (z-score)” value [16] was -0.203, the “glycan array binding signal (z-score)” value [17] was -0.313 and the “glycan array binding signal (z-score)” value [18] was 0.522. The “glycan array binding signal (z-score)” value [19] was -0.176, the “glycan array binding signal (z-score)” value [20] was -0.076 and the “glycan array binding signal (z-score)” value (GlcNAc(b1-3)Fuc) was -0.579. The “glycan array binding signal (z-score)” value (GlcNAc(b1-3)Gal) was 0.024, the “glycan array binding signal (z-score)” value [21] was 0.701 and the “glycan array binding signal (z-score)” value (GlcNAc(b1-3)Gal(b1-4)Glc) was -0.356. For the same binder, the “glycan array binding signal (z-score)” value [22] was -0.835, the “glycan array binding signal (z-score)” value [23] was -0.48 and the “glycan array binding signal (z-score)” value [24] was 0.664. The “glycan array binding signal (z-score)” value [25] was 0.074, the “glycan array binding signal (z-score)” value [26] was 0.772 and the “glycan array binding signal (z-score)” value [27] was 2.32. For the same binder, the “glycan array binding signal (z-score)” value [28] was 0.337, the “glycan array binding signal (z-score)” value [29] was 0.343 and the “glycan array binding signal (z-score)” value [30] was 0.445. For the same binder, the “glycan array binding signal (z-score)” value [31] was -0.047, the “glycan array binding signal (z-score)” value [32] was 0.203 and the “glycan array binding signal (z-score)” value [33] was 0.632. For the same binder, the “glycan array binding signal (z-score)” value [34] was 0.883 and the “glycan array binding signal (z-score)” value [35] was -0.157.
